Compound in the experiment: Cc1cc(ccc1-c1ccccc1)C(=O)N1CCCN(CC1)C(=O)CCl [compound 10]
The experiment is described as follows: probe-labelled cysteine peptide fold change vs DMSO (competition) (log2 fold change); higher = less target engagement (more negative = stronger competition). The note with it: THP-1, incubation time: 4 h.

Chains of the proteins cited; added tags and fusions are not shown. Lines headed by an entry give the natural chain unless they say otherwise; changes in a name come on top.
UniProt Q13485: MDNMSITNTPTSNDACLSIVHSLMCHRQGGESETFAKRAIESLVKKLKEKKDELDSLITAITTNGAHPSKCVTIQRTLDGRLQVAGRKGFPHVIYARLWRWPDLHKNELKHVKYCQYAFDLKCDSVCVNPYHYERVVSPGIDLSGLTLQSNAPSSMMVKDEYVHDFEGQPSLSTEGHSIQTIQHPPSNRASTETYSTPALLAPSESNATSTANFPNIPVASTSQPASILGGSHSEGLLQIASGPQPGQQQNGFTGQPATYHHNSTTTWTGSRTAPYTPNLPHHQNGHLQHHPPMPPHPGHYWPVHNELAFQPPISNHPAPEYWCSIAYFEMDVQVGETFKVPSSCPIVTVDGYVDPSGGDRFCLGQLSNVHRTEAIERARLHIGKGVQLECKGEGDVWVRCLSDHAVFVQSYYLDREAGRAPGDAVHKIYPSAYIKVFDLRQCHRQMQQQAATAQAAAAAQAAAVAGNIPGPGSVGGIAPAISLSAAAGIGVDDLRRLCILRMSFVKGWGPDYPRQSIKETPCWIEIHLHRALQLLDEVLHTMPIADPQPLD
UniProt Q9H2G2: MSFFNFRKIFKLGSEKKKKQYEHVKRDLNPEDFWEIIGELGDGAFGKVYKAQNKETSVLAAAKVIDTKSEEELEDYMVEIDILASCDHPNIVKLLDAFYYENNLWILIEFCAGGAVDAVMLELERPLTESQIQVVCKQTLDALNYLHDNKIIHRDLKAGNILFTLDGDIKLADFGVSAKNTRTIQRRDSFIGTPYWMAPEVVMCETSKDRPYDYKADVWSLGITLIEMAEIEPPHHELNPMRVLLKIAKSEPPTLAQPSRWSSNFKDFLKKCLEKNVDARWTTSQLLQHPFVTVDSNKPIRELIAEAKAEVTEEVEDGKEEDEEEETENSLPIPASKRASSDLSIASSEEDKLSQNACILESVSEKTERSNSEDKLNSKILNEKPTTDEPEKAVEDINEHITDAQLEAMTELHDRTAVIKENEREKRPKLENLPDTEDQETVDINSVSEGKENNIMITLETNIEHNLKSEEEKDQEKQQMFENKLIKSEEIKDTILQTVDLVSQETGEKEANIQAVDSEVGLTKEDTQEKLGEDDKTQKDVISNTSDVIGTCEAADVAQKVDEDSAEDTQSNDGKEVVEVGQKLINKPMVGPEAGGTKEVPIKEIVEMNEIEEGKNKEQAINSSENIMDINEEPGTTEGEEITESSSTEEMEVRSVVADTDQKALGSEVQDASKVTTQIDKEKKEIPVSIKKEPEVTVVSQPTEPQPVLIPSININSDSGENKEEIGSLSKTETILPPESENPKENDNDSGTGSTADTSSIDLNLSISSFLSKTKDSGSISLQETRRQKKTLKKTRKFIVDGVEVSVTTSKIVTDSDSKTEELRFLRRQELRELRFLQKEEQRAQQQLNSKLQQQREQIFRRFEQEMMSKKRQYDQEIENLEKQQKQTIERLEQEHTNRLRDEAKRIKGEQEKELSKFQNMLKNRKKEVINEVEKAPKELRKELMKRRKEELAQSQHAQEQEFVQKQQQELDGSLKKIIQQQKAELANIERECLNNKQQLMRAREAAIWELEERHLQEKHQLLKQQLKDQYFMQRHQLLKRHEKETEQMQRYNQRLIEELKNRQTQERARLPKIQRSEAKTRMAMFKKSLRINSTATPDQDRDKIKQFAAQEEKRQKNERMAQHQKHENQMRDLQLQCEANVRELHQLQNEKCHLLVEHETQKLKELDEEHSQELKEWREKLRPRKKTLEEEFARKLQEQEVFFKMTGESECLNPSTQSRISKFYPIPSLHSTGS
UniProt P17405: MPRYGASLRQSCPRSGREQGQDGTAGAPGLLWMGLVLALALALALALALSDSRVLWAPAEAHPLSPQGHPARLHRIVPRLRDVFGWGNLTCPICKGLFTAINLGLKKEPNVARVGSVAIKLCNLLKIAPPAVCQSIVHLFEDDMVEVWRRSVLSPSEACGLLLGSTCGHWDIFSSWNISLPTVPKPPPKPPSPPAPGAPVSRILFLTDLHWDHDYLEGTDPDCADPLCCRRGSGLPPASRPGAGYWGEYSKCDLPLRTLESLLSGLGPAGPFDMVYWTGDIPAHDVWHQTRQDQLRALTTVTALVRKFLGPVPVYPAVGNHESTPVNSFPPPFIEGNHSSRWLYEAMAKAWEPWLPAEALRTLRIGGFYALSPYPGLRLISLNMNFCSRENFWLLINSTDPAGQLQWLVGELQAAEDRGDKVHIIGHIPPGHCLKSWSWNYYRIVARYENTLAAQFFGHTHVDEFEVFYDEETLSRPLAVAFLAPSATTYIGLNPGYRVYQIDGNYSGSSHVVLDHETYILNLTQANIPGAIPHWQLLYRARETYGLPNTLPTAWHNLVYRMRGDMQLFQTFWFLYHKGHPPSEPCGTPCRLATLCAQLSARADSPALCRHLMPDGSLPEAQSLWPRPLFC
UniProt Q96DI7: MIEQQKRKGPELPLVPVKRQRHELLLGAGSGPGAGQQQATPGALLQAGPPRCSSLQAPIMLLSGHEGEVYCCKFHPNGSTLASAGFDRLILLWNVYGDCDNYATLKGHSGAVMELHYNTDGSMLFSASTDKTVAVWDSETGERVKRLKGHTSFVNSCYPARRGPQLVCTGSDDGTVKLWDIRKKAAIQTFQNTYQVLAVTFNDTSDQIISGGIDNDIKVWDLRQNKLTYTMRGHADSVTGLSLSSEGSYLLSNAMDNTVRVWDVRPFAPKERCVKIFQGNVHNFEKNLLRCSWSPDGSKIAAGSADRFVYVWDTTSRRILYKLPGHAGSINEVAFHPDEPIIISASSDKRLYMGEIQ
UniProt O75643, whole entry, looked up: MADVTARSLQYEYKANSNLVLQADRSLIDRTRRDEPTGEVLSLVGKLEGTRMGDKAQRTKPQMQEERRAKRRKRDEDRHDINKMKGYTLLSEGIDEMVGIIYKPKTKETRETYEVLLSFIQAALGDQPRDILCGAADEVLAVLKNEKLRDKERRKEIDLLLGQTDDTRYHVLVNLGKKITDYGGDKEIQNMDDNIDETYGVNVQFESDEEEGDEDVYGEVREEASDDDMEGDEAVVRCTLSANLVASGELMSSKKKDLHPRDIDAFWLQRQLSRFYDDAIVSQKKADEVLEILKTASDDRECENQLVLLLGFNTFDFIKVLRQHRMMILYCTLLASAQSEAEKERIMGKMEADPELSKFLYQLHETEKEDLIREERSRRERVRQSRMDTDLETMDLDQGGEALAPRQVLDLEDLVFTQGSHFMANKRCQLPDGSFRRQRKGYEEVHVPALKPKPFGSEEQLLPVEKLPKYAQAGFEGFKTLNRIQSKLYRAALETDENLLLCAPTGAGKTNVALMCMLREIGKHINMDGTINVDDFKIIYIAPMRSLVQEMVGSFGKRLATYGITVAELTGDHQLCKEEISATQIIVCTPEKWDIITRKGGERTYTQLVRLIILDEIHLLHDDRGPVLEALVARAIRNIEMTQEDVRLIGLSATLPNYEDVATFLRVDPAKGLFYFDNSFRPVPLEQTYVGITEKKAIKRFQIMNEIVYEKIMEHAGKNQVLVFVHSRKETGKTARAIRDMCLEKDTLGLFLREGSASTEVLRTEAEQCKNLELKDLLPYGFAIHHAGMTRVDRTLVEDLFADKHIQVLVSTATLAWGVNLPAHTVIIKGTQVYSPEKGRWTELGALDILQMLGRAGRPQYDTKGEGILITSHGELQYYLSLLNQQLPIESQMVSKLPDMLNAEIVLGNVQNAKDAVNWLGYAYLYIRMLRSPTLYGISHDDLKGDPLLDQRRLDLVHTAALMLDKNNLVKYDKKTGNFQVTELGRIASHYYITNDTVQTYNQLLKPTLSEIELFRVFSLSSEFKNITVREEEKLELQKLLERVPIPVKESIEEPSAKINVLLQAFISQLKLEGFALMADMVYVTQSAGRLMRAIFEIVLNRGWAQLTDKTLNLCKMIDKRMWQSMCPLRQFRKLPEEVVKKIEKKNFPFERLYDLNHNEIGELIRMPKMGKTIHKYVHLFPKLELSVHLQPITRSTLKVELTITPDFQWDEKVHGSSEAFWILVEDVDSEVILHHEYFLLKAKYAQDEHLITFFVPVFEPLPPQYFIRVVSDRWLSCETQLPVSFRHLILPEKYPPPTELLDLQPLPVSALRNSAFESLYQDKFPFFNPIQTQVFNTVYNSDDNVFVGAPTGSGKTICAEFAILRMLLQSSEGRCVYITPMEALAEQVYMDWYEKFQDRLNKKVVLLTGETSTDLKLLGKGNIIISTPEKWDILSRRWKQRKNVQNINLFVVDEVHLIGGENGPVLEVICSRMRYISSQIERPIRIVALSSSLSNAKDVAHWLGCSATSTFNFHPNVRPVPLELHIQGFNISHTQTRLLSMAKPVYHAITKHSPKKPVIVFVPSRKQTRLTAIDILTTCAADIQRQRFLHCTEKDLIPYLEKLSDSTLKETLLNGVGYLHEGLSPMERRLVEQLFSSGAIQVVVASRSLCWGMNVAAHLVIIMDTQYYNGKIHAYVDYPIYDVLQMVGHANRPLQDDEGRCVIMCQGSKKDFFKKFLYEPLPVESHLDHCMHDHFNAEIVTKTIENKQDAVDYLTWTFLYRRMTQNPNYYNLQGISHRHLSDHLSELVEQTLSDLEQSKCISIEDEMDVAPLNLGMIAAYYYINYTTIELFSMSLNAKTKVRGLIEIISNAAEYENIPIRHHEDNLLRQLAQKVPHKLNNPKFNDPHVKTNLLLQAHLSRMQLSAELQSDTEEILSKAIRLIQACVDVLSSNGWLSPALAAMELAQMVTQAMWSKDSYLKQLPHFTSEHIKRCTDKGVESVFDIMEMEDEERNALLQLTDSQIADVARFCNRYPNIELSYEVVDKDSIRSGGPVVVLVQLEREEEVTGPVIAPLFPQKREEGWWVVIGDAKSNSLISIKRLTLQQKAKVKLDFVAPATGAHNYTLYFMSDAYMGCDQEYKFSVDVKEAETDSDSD
UniProt Q6GMV2: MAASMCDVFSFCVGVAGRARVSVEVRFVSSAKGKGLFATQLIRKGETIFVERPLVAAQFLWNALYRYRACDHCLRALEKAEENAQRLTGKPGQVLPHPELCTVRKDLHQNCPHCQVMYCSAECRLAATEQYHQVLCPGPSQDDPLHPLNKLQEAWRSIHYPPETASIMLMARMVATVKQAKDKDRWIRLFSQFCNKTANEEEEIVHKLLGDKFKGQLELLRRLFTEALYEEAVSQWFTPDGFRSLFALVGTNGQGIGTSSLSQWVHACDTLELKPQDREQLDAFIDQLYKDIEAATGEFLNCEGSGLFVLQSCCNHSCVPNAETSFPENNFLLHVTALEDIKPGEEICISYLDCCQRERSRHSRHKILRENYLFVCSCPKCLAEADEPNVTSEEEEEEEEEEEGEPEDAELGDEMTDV
UniProt Q96CW6: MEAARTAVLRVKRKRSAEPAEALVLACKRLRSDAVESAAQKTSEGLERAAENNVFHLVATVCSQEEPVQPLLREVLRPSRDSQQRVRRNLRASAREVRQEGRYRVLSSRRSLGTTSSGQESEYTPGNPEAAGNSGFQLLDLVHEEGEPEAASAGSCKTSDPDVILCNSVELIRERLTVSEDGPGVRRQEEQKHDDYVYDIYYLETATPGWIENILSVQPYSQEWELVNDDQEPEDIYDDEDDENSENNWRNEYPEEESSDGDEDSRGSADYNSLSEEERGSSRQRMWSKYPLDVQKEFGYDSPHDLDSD
UniProt Q7KZF4: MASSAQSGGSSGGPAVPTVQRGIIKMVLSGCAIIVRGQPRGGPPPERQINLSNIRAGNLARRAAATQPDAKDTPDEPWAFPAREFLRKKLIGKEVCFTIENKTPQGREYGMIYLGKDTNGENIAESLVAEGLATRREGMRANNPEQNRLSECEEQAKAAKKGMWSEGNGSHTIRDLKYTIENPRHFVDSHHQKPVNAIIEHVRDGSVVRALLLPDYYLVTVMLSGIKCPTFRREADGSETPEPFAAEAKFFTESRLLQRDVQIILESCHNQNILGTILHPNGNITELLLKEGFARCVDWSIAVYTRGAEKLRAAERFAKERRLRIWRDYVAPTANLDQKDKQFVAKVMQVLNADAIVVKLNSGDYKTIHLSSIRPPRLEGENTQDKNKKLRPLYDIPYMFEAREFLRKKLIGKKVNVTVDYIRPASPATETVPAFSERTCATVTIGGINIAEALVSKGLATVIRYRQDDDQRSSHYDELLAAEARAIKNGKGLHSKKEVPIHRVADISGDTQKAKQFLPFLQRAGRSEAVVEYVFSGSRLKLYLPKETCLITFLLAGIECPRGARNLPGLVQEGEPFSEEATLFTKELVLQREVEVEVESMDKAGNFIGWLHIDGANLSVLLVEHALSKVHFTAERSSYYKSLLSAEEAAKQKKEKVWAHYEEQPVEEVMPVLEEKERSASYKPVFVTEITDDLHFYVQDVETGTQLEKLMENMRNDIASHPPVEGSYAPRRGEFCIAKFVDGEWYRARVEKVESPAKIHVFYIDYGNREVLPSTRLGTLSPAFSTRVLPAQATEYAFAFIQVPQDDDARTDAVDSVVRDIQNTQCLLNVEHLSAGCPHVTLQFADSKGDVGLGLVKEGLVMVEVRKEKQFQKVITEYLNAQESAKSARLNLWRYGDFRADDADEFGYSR

Some of the results follow.
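Note: competitive profiling in live THP-1 cells: cysteine peptides tagged with an iodoacetamide desthiobiotin (IA-DTB) probe, intensity after compound treatment relative to DMSO-treated cells.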

As for “SMAD4_Q13485_123+127_CDSVCVNPYHYER (UniProt Q13485)”, the “probe-labelled cysteine peptide fold change” value (10 µM) amounted to 0.132 and the “probe-labelled cysteine peptide fold change” value (50 µM) worked out at 0.205.

With “SMARCA2_P51531_1016_ICNHPYMFQHIEESFAEHLGYSNGVINGAELYR (UniProt P51531)”, the “probe-labelled cysteine peptide fold change” value reads like this: (10 µM) 0.0118; (50 µM) 0.067.

On to “SLK_Q9H2G2_1138_DLQLQCEANVR (UniProt Q9H2G2)”, for which the “probe-labelled cysteine peptide fold change” value (10 µM) is 0.0336 and the “probe-labelled cysteine peptide fold change” value (50 µM) came out at 0.0461.

On to “SMARCB1_Q12824_147_NSQWVPTLPNSSHHLDAVPCSTTINR (UniProt Q12824)”, for which the “probe-labelled cysteine peptide fold change” value (10 µM) is -0.218 and the “probe-labelled cysteine peptide fold change” value (50 µM) is -0.109.

In the case of “SLMAP_Q14BN4_641_CQQCEDQQR (UniProt Q14BN4)”, the “probe-labelled cysteine peptide fold change” value is 0.124 (10 µM) and 0.22 (50 µM).

For “SMPD1_P17405_590_GHPPSEPCGTPCR (UniProt P17405)”, the “probe-labelled cysteine peptide fold change” value by setting is: (10 µM) -0.138; (50 µM) 0.195.

With “SMPD4_Q9NXE4_164_ASIQECILPDSPLYHNK (UniProt Q9NXE4)”, the “probe-labelled cysteine peptide fold change” value worked out at 0.00468 (10 µM) and 0.153 (50 µM).

Regarding “SMAD4_Q13485_523_ETPCWIEIHLHR (UniProt Q13485)”, the “probe-labelled cysteine peptide fold change” value by setting is: (10 µM) -0.0491; (50 µM) -0.057.

With “SMC4_Q9NTJ3_1083_CHEMKPNLGAIAEYK (UniProt Q9NTJ3)”, the “probe-labelled cysteine peptide fold change” value (10 µM) is -0.146 and the “probe-labelled cysteine peptide fold change” value (50 µM) is -0.316.

For “SMARCC1_Q92922_108_CFMDFK (UniProt Q92922)”, the “probe-labelled cysteine peptide fold change” value was -0.151 (10 µM) and -0.0801 (50 µM).

For the target “SNRNP40_Q96DI7_168_RGPQLVCTGSDDGTVK (UniProt Q96DI7)”, the “probe-labelled cysteine peptide fold change” value (10 µM) was -0.149 and the “probe-labelled cysteine peptide fold change” value (50 µM) was -9.5e-06.

On to “SLK_Q9H2G2_204_DSFIGTPYWMAPEVVMCETSK (UniProt Q9H2G2)”, for which the “probe-labelled cysteine peptide fold change” value was -0.196 (10 µM) and -0.141 (50 µM).

In the case of “SMYD4_Q8IYR2_501_HMLQLQCNAQAMTTIQHTGPK (UniProt Q8IYR2)”, the “probe-labelled cysteine peptide fold change” value (10 µM) came to 0.284 and the “probe-labelled cysteine peptide fold change” value (50 µM) is 0.0362.

With “SMG1_Q96Q15_1715_QLISSCPWLSELDESATEGVIK (UniProt Q96Q15)”, the “probe-labelled cysteine peptide fold change” value is, setting by setting: (10 µM) -0.0563; (50 µM) 0.224.

“SMCHD1_A6NHR9_444_ETYPDDPCFPSK (UniProt A6NHR9)”: the “probe-labelled cysteine peptide fold change” value was -0.204 (10 µM) and 0.0464 (50 µM).

“SNRNP200_O75643_302_TASDDRECENQLVLLLGFNTFDFIK (UniProt O75643)”: the “probe-labelled cysteine peptide fold change” value by setting is: (10 µM) 0.114; (50 µM) 0.668.

Turning to “SMYD5_Q6GMV2_70_ACDHCLR (UniProt Q6GMV2)”, the “probe-labelled cysteine peptide fold change” value is -0.0892 (10 µM) and -0.392 (50 µM).

As for “SMC1A_Q14683_781_MNQVEDEVFEEFCR (UniProt Q14683)”, the “probe-labelled cysteine peptide fold change” value runs as follows: (10 µM) 0.0419; (50 µM) 0.0443.

Take “SMPD1_P17405_229_ILFLTDLHWDHDYLEGTDPDCADPLCCR (UniProt P17405)”: the “probe-labelled cysteine peptide fold change” value was -0.591 (10 µM) and -0.143 (50 µM).

In the case of “SLC7A6OS_Q96CW6_62_AAENNVFHLVATVCSQEEPVQPLLR (UniProt Q96CW6)”, the “probe-labelled cysteine peptide fold change” value runs as follows: (10 µM) 0.249; (50 µM) -0.159.

On to “SNRPB_P14678_45_HMNLILCDCDEFRK (UniProt P14678)”, for which the “probe-labelled cysteine peptide fold change” value was 0.00747 (10 µM) and -0.106 (50 µM).

Regarding “SNRNP200_O75643_769_TEAEQCK (UniProt O75643)”, the “probe-labelled cysteine peptide fold change” value (10 µM) was -0.0819 and the “probe-labelled cysteine peptide fold change” value (50 µM) came out at 0.064.

Consider “SLFN11_Q7Z7L1_322_VNPFCCAVFSEAPNSWIVEDK (UniProt Q7Z7L1)”, for which the “probe-labelled cysteine peptide fold change” value is, setting by setting: (10 µM) 0.382; (50 µM) 0.575.

As to “SND1_Q7KZF4_826+837_DIQNTQCLLNVEHLSAGCPHVTLQFADSK (UniProt Q7KZF4)”, the “probe-labelled cysteine peptide fold change” value (10 µM) was determined as 0.116 and the “probe-labelled cysteine peptide fold change” value (50 µM) was -0.205.

For the target “SMG1_Q96Q15_1245_FVECTEQLELLPGENINLLAGGSK (UniProt Q96Q15)”, the “probe-labelled cysteine peptide fold change” value reads like this: (10 µM) -0.138; (50 µM) -0.257.

As to “SLC44A1_Q8WWI5_98_YVFFLDPCNLDLINR (UniProt Q8WWI5)”, the “probe-labelled cysteine peptide fold change” value was 0.0771 (10 µM) and 0.185 (50 µM).

Take “SMYD5_Q6GMV2_101_LTGKPGQVLPHPELCTVRK (UniProt Q6GMV2)”: the “probe-labelled cysteine peptide fold change” value (10 µM) was -0.143 and the “probe-labelled cysteine peptide fold change” value (50 µM) is -0.87.

With “SLC7A7_Q9UM01_349_EGHLPDAICMIHVER (UniProt Q9UM01)”, the “probe-labelled cysteine peptide fold change” value reads like this: (10 µM) 0.0327; (50 µM) -0.262.

Regarding “SNRNP40_Q96DI7_72_CSSLQAPIMLLSGHEGEVYCCK (UniProt Q96DI7)”, the “probe-labelled cysteine peptide fold change” value reads like this: (10 µM) 0.131; (50 µM) 0.192.

“SMARCA2_P51531_399_QEVVACMR (UniProt P51531)”: the “probe-labelled cysteine peptide fold change” value by setting is: (10 µM) 0.0865; (50 µM) 0.109.

“SND1_Q7KZF4_440_TCATVTIGGINIAEALVSK (UniProt Q7KZF4)”: the “probe-labelled cysteine peptide fold change” value is, setting by setting: (10 µM) 0.165; (50 µM) 0.0227.

Take “SMYD5_Q6GMV2_101_LTGKPGQVLPHPELCTVR (UniProt Q6GMV2)”: the “probe-labelled cysteine peptide fold change” value reads like this: (10 µM) -0.0572; (50 µM) -0.199.

For the target “SMARCA2_P51531_91_GIVEDIHCGSMK (UniProt P51531)”, the “probe-labelled cysteine peptide fold change” value is, setting by setting: (10 µM) -0.144; (50 µM) -0.439.

With “SNRNP200_O75643_588_EEISATQIIVCTPEK (UniProt O75643)”, the “probe-labelled cysteine peptide fold change” value runs as follows: (10 µM) 0.155; (50 µM) 0.273.

Regarding “SLFN11_Q7Z7L1_126_LCSLSSSLYR (UniProt Q7Z7L1)”, the “probe-labelled cysteine peptide fold change” value by setting is: (10 µM) -0.0272; (50 µM) -0.368.

On to “SLC7A1_P30825_628_TPDGNLDQCK (UniProt P30825)”, for which the “probe-labelled cysteine peptide fold change” value is -0.301 (10 µM) and 0.0792 (50 µM).

With “SMARCD2_Q92925_405_TACYDIDVEVDDPLK (UniProt Q92925)”, the “probe-labelled cysteine peptide fold change” value is, setting by setting: (10 µM) -0.0837; (50 µM) 0.244.

The values are drawn from the supplement of paper PMC12067093, “Discovery and optimisation of a covalent ligand for TRIM25 and its application to targeted protein ubiquitination” (Chemical Science, 2025).
